The data set deals with human DMS. Description: In vivo assay: intracerebral injection of human DMS plus compound into rats, histology of DMS disruption site. Conditions: initial mean volume of tissue occupied by the DMS; rats injected with about 100,000 human DMS and compound at 10^−5M, total volume about 100 μl.

`CC(Cc1ccccc1)N1CCN(C(c2ccccc2)c2ccccc2)CC1` (racemic) [Compound 1, (±)-1-(1-Phenylisopropyl)-4-(diphenylmethyl)piperazine]: the “Mean Volume DMS” value is 1153 μ^3.

Take `Clc1ccc2c(c1)C(N1CCNCC1)=Nc1ccccc1O2` [Amoxepine]: the “Mean Volume DMS” value is 907 μ^3.

For the compound `c1ccc(C(OCCOC(c2ccccc2)c2ccccc2)c2ccccc2)cc1` [Compound 2, 1,2-Bis(diphenylmethoxy)ethane], the “Mean Volume DMS” value worked out at 525 μ^3.

In the case of `Clc1ccc(C(OCCOC(c2ccccc2)c2ccc(Cl)cc2)c2ccccc2)cc1` (stereo not drawn) [Compound 4, 1,2-Bis(4chlorophenylphenylmethoxy)ethane], the “Mean Volume DMS” value turned out to be 525 μ^3.

Take `FC(F)(F)c1ccc(C(OCCOC(c2ccccc2)c2ccc(C(F)(F)F)cc2)c2ccccc2)cc1` (stereo not drawn) [Compound 5, 1,2-Bis(4-trifluoromethylphenylphenylmethoxy)ethane]: the “Mean Volume DMS” value is 907 μ^3.

As for `Cc1ccccc1C(OCCOC(c1ccccc1)c1ccccc1C)c1ccccc1` (stereo not drawn) [Compound 6, 1,2-Bis(2-methylphenylphenylmethoxy)ethane], the “Mean Volume DMS” value was found to be 907 μ^3.

In the case of `CN(CCC=C1c2ccccc2CCc2ccccc21)CCOC(c1ccccc1)c1ccccc1` [Compound 9, 3-(10,11-Dihydro-5H-dibenzo[a,d]cyclohepten-5-ylidene-N-methyl-N-[2-(diphenylmethoxy)ethyl)]-1-propaneamine], the “Mean Volume DMS” value is listed as 383 μ^3.

In the case of `CN(CCC=C1c2ccccc2CCc2ccccc21)CCOC(c1ccccc1)c1ccc(Cl)cc1` (stereo not drawn) [Compound 10, 3-(10,11-Dihydro-5H-dibenzo[a,d]cyclohepten-5-ylidene-N-methyl-N-[2-(4-chlorophenylphenylmethoxy)ethyl)]-1-propaneamine], the “Mean Volume DMS” value amounted to 383 μ^3.

In the case of `COC(=O)C1=C(C)N(CCOC(c2ccccc2)c2ccccc2)C(C)=C(C(=O)OC)C1c1ccccc1` [Compound 11], the “Mean Volume DMS” value is reported as 907 μ^3.

For `CC(COc1ccc(/C(=C/c2ccccc2)c2ccccc2)cc1)N1CCN(C(c2ccccc2)c2ccccc2)CC1` (stereo not drawn) [Compound 12], the “Mean Volume DMS” value is 525 μ^3.

As to `Cn1cnc2c1c(=O)n(CCOC(c1ccccc1)c1ccccc1)c(=O)n2C` [Compound 13], the “Mean Volume DMS” value is recorded as 1440 μ^3.

As to `Cn1cnc2c1c(=O)n(CCOC(c1ccccc1)c1ccc(Cl)cc1)c(=O)n2C` (stereo not drawn) [Compound 14], the “Mean Volume DMS” value turned out to be 1440 μ^3.

With `CN1C(=O)CN=C(c2ccccc2)c2cc(Cl)ccc21` [Diazepam], the “Mean Volume DMS” value is 383 μ^3.

Take `C[C@@H](CO)NC(=O)[C@@H]1C=C2c3cccc4[nH]cc(c34)C[C@H]2N(C)C1` [Ergonovine]: the “Mean Volume DMS” value was determined as 525 μ^3.

Regarding `CN1C[C@H](C(=O)N[C@]2(C)O[C@@]3(O)[C@@H]4CCCN4C(=O)[C@H](Cc4ccccc4)N3C2=O)C=C2c3cccc4[nH]cc(c34)C[C@H]21` [Ergotamine], the “Mean Volume DMS” value was found to be 525 μ^3.

Turning to `CN(C)CCCN1c2ccccc2CCc2ccccc21` [Imipramine], the “Mean Volume DMS” value amounted to 907 μ^3.

Take `O=C1Nc2ccc(Cl)cc2C(c2ccccc2Cl)=NC1O` (stereo not drawn) [Lorazepam]: the “Mean Volume DMS” value is given as 383 μ^3.

For `CCOC(=O)C1(c2ccccc2)CCN(C)CC1` [Meperidine], the “Mean Volume DMS” value is reported as 1153 μ^3.

`COC(=O)C(c1ccccc1)C1CCCCN1` (stereo not drawn) [Methylphenidate]: the “Mean Volume DMS” value worked out at 525 μ^3.

For the compound `CN(C)C(=O)Oc1cccc([N+](C)(C)C)c1` [Neostigmine], the “Mean Volume DMS” value stood at 1440 μ^3.

On to `CCCN1C[C@H](CSC)C[C@@H]2c3cccc4[nH]cc(c34)C[C@H]21` [Pergolide], for which the “Mean Volume DMS” value amounted to 907 μ^3.

With `CC[C@@H]1C(=O)OC[C@@H]1Cc1cncn1C` [Pilocarpine], the “Mean Volume DMS” value was 1440 μ^3.

Take `C#CCN(C)[C@H](C)Cc1ccccc1` [Selegiline]: the “Mean Volume DMS” value is listed as 907 μ^3.

As for `Nc1c2c(nc3ccccc13)CCCC2` [Tacrine], the “Mean Volume DMS” value is 525 μ^3.
